# Experimental data taken from patent publication EP1530462B1, “1-PHENYL-2-DIMETHYLAMINOMETHYL CYCLOHEXANE COMPOUNDS USED FOR THE THERAPY OF DEPRESSIVE SYMPTOMS, PAIN, AND INCONTINENCE” (priority 2002, dated 2004).
# The chains behind the UniProt entries cited, without tags or fusion partners.
# UniProt P35372, whole entry: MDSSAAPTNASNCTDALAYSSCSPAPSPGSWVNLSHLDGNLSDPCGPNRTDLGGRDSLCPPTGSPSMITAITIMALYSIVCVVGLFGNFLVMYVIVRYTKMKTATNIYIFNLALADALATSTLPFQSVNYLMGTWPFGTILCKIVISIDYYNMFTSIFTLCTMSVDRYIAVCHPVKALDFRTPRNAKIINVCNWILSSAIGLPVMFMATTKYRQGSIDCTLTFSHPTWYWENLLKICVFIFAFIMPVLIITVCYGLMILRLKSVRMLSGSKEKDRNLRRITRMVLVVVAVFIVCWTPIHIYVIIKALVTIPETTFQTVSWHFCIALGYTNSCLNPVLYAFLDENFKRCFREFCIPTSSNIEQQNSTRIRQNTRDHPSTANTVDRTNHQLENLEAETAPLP
# Target: µ-Opioid Rezeptor (Homo sapiens, UniProt P35372)
# Assay: µ-opioid receptor binding (species not given, reference antidepressants)
# Details: unw. = inactive
# Text: Die Ergebnisse dieser, in der Fachliteratur in ihrer Durchführung hinlänglich bekannten Standardtests sind in Tabelle 1 zusammengefaßt: Tabelle 1: Uptakehemmung und Opioidrezeptorbindung
smiles,measurement,value
CNCCC(Oc1ccc(C(F)(F)F)cc1)c1ccccc1 (racemic) [Fluoxetin],Ki-Werte µ-Opioid Rezeptor,unw.
